Results as given in the supplement of paper PMC10727501.
The other results are listed elsewhere or left out. Repeats in this data set agree poorly, so a single value says little.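 Free-swimming zebrafish larvae were scored for O-bend response probability to dark flashes (naive: first five; training: remaining flashes of four 60-flash blocks; test: later 60-flash block) and for turning toward alternating leftward/rightward LED motion (OMR). Six treated larvae were compared with sixty 0.1% DMSO controls; |SSMD|≥2 defined a hit.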

How the values were obtained:
Details in all cases: 10 µM; pre-incubation: 30-90 min
[1] = tested on: Danio rerio larvae (5 dpf, TLF); test: OMR-Perf (SSMD vs DMSO vehicle); higher = higher than vehicle (e.g. higher dark-flash O-bend response probability, or better optomotor performance)
[2] = tested on: Danio rerio larvae (5 dpf, TLF); test: Prob-Test (SSMD vs DMSO vehicle); higher = higher than vehicle (e.g. higher dark-flash O-bend response probability, or better optomotor performance)
[3] = tested on: Danio rerio larvae (5 dpf, TLF); test: Prob-Naive (SSMD vs DMSO vehicle); higher = higher than vehicle (e.g. higher dark-flash O-bend response probability, or better optomotor performance)
[4] = tested on: Danio rerio larvae (5 dpf, TLF); test: Prob-Train (SSMD vs DMSO vehicle); higher = higher than vehicle (e.g. higher dark-flash O-bend response probability, or better optomotor performance)

Row | Structure (SMILES) | OMR-Perf [1] | Prob-Test [2] | Prob-Naive [3] | Prob-Train [4]
1 | NC(=O)c1cccc(-c2cc(Nc3ccc(OC(F)(F)F)cc3)ncn2)c1 | 0.32 | -0.346 | 0.0457 | -0.272
2 | Cn1c(=O)c2[nH]cnc2n(C)c1=O.Cn1c(=O)c2[nH]cnc2n(C)c1=O.NCCN [Aminophylline] | 0.0521 | -0.503 | -1.02 | -0.413
3 | CC1=NN(c2ccc(C)c(C)c2)C(=O)/C1=N/Nc1cccc(-c2cccc(C(=O)O)c2)c1O [Eltrombopag] | -0.0806 | -0.347 | 0.375 | -0.762
4 | CCN(CC)CCNC(=O)c1c(C)[nH]c(/C=C2\C(=O)Nc3ccc(F)cc32)c1C.O=C(O)C[C@H](O)C(=O)O [Sunitinib Malate] | -0.0969 | 0.0354 | -0.159 | -0.381
5 | CC(C)N(CC[C@H](c1ccccc1)c1cc(CO)ccc1O)C(C)C | -0.226 | -0.39 | -0.226 | -0.269
6 | Cn1c(=O)cc(N2CCC[C@@H](N)C2)n(Cc2ccccc2C#N)c1=O [Alogliptin] | -0.116 | 0.542 | 0.232 | 0.978
7 | CC(C(=O)O)c1ccc2c(c1)Cc1cccnc1O2 (centres undefined) [Pranoprofen] | 1.11 | 0.583 | -0.0225 | 0.0166
8 | C[C@]12CC[C@H]3c4ccc(O)cc4CC[C@H]3[C@@H]1CCC2=O [Estrone] | -0.877 | -0.209 | -0.458 | -0.688
9 | CN(C)CCCC1(c2ccc(F)cc2)OCc2cc(C#N)ccc21.O=C(O)C(=O)O (centres undefined) [Escitalopram Oxalate] | 0.198 | 0.323 | -0.217 | -0.681
10 | CC(NC(=O)CCc1nc(=O)c2ccccc2[nH]1)c1ccccc1 (centres undefined) | 0.168 | -0.763 | -0.0813 | -0.815
11 | O=c1cc(-c2ccc(O)c(O)c2)oc2cc(O)cc(O)c12 [Luteolin] | 0.161 | -0.175 | 0.0696 | -0.0217
12 | COc1cc(N2CCC(N)CC2)ccc1Nc1ncc(Cl)c(-c2c[nH]c3ccccc23)n1 | 0.571 | -0.085 | -0.315 | 0.417
13 | C[N+](C)(C)CCOC(N)=O.[Cl-] [Carbachol] | -0.000508 | 0.217 | -0.362 | 0.436
14 | CNC(=O)c1ccc(-c2cnc3ncc(Cc4ccc5ncccc5c4)n3n2)cc1F | 0.185 | 0.574 | 0.538 | 0.76
15 | CCc1cnn2c(NCc3ccc[n+]([O-])c3)cc(N3CCCC[C@H]3CCO)nc12 | 0.365 | 1.13 | 0.145 | 0.716
16 | C=C1CC[C@H](O)C/C1=C\C=C1/CCC[C@@]2(C)[C@H]1CC[C@H]2[C@H](C)CCCC(C)C [Vitamin D3] | 0.671 | -0.527 | 0.00662 | -0.165
17 | CCCOc1ccc2nc(NC(=O)OC)[nH]c2c1 [Oxibendazole] | -1.03 | -1.79 | 0.0939 | -0.214
18 | C[C@@H]1CN(c2c(F)c(N)c3c(=O)c(C(=O)O)cn(C4CC4)c3c2F)C[C@H](C)N1 [Sparfloxacin] | -0.423 | 0.26 | 0.493 | -0.0293
19 | O=C(O)/C=C/C(=O)O.OCCOCCN1CCN(C2=Nc3ccccc3Sc3ccccc32)CC1.OCCOCCN1CCN(C2=Nc3ccccc3Sc3ccccc32)CC1 [Quetiapine Fumarate] | -1.03 | -1.09 | 0.497 | -0.983
20 | O=C(c1ccc(Nc2nccc(-c3cc4ccccc4s3)n2)cc1)N1CCC(N2CCCC2)CC1 [IKK-16 (IKK Inhibitor VII)] | 0.639 | -1.21 | -0.202 | -0.374
21 | CCN(CC)Cc1ccc2cc(COC(=O)Nc3ccc(C(=O)NO)cc3)ccc2c1.Cl.O [Givinostat (ITF2357)] | 0.321 | 0.289 | 0 | -0.34
22 | Nc1c2ccccc2nc2ccccc12 [9-Aminoacridine] | 0.252 | 0.0935 | 0.457 | 0.546
23 | CN(C)CCc1c[nH]c2ccc(C[C@H]3COC(=O)N3)cc12 [Zolmitriptan] | -0.431 | -0.433 | -0.307 | -0.386
24 | Cn1c(=O)cc(N2CCCC(N)C2)n(Cc2cc(F)ccc2C#N)c1=O (centres undefined) [Trelagliptin] | 0.134 | 0.0526 | 0.248 | 0.0442
25 | O=C([O-])c1cc(/N=N/c2ccc(O)c(C(=O)[O-])c2)ccc1O.[Na+].[Na+] [Olsalazine Sodium] | 0.0403 | -0.209 | 0.263 | -0.344
26 | COc1cc2c(Nc3ccc(Br)cc3F)ncnc2cc1OCC1CCN(C)CC1 [Vandetanib (ZD6474)] | 0.652 | 0.16 | -0.0527 | 0.0419

Random excerpt: 2 records from the list.
Row | Structure (SMILES) | OMR-Perf [1] | Prob-Test [2] | Prob-Naive [3] | Prob-Train [4]
11 | O=c1cc(-c2ccc(O)c(O)c2)oc2cc(O)cc(O)c12 [Luteolin] | 0.161 | -0.175 | 0.0696 | -0.0217
23 | CN(C)CCc1c[nH]c2ccc(C[C@H]3COC(=O)N3)cc12 [Zolmitriptan] | -0.431 | -0.433 | -0.307 | -0.386
